Consider five molecules from paper PMC12009912.

Sequences of proteins named here, by UniProt entry; tags and fusion partners are left off. A change or cut given only in a name is not applied to a line headed by its entry.
UniProt P06837: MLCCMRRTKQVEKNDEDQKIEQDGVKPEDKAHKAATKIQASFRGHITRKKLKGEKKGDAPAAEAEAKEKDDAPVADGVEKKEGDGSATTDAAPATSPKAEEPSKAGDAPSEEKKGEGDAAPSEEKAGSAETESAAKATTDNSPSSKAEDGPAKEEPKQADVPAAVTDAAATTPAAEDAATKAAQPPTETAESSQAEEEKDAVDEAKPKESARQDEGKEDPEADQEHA
UniProt P06748: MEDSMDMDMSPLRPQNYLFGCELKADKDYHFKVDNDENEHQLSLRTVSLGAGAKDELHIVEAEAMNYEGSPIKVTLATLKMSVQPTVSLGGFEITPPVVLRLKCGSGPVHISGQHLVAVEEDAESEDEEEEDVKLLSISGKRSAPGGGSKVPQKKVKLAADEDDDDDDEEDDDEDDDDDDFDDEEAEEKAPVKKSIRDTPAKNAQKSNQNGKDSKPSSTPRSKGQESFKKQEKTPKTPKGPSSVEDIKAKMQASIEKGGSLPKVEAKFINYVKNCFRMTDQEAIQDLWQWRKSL
UniProt Q09666: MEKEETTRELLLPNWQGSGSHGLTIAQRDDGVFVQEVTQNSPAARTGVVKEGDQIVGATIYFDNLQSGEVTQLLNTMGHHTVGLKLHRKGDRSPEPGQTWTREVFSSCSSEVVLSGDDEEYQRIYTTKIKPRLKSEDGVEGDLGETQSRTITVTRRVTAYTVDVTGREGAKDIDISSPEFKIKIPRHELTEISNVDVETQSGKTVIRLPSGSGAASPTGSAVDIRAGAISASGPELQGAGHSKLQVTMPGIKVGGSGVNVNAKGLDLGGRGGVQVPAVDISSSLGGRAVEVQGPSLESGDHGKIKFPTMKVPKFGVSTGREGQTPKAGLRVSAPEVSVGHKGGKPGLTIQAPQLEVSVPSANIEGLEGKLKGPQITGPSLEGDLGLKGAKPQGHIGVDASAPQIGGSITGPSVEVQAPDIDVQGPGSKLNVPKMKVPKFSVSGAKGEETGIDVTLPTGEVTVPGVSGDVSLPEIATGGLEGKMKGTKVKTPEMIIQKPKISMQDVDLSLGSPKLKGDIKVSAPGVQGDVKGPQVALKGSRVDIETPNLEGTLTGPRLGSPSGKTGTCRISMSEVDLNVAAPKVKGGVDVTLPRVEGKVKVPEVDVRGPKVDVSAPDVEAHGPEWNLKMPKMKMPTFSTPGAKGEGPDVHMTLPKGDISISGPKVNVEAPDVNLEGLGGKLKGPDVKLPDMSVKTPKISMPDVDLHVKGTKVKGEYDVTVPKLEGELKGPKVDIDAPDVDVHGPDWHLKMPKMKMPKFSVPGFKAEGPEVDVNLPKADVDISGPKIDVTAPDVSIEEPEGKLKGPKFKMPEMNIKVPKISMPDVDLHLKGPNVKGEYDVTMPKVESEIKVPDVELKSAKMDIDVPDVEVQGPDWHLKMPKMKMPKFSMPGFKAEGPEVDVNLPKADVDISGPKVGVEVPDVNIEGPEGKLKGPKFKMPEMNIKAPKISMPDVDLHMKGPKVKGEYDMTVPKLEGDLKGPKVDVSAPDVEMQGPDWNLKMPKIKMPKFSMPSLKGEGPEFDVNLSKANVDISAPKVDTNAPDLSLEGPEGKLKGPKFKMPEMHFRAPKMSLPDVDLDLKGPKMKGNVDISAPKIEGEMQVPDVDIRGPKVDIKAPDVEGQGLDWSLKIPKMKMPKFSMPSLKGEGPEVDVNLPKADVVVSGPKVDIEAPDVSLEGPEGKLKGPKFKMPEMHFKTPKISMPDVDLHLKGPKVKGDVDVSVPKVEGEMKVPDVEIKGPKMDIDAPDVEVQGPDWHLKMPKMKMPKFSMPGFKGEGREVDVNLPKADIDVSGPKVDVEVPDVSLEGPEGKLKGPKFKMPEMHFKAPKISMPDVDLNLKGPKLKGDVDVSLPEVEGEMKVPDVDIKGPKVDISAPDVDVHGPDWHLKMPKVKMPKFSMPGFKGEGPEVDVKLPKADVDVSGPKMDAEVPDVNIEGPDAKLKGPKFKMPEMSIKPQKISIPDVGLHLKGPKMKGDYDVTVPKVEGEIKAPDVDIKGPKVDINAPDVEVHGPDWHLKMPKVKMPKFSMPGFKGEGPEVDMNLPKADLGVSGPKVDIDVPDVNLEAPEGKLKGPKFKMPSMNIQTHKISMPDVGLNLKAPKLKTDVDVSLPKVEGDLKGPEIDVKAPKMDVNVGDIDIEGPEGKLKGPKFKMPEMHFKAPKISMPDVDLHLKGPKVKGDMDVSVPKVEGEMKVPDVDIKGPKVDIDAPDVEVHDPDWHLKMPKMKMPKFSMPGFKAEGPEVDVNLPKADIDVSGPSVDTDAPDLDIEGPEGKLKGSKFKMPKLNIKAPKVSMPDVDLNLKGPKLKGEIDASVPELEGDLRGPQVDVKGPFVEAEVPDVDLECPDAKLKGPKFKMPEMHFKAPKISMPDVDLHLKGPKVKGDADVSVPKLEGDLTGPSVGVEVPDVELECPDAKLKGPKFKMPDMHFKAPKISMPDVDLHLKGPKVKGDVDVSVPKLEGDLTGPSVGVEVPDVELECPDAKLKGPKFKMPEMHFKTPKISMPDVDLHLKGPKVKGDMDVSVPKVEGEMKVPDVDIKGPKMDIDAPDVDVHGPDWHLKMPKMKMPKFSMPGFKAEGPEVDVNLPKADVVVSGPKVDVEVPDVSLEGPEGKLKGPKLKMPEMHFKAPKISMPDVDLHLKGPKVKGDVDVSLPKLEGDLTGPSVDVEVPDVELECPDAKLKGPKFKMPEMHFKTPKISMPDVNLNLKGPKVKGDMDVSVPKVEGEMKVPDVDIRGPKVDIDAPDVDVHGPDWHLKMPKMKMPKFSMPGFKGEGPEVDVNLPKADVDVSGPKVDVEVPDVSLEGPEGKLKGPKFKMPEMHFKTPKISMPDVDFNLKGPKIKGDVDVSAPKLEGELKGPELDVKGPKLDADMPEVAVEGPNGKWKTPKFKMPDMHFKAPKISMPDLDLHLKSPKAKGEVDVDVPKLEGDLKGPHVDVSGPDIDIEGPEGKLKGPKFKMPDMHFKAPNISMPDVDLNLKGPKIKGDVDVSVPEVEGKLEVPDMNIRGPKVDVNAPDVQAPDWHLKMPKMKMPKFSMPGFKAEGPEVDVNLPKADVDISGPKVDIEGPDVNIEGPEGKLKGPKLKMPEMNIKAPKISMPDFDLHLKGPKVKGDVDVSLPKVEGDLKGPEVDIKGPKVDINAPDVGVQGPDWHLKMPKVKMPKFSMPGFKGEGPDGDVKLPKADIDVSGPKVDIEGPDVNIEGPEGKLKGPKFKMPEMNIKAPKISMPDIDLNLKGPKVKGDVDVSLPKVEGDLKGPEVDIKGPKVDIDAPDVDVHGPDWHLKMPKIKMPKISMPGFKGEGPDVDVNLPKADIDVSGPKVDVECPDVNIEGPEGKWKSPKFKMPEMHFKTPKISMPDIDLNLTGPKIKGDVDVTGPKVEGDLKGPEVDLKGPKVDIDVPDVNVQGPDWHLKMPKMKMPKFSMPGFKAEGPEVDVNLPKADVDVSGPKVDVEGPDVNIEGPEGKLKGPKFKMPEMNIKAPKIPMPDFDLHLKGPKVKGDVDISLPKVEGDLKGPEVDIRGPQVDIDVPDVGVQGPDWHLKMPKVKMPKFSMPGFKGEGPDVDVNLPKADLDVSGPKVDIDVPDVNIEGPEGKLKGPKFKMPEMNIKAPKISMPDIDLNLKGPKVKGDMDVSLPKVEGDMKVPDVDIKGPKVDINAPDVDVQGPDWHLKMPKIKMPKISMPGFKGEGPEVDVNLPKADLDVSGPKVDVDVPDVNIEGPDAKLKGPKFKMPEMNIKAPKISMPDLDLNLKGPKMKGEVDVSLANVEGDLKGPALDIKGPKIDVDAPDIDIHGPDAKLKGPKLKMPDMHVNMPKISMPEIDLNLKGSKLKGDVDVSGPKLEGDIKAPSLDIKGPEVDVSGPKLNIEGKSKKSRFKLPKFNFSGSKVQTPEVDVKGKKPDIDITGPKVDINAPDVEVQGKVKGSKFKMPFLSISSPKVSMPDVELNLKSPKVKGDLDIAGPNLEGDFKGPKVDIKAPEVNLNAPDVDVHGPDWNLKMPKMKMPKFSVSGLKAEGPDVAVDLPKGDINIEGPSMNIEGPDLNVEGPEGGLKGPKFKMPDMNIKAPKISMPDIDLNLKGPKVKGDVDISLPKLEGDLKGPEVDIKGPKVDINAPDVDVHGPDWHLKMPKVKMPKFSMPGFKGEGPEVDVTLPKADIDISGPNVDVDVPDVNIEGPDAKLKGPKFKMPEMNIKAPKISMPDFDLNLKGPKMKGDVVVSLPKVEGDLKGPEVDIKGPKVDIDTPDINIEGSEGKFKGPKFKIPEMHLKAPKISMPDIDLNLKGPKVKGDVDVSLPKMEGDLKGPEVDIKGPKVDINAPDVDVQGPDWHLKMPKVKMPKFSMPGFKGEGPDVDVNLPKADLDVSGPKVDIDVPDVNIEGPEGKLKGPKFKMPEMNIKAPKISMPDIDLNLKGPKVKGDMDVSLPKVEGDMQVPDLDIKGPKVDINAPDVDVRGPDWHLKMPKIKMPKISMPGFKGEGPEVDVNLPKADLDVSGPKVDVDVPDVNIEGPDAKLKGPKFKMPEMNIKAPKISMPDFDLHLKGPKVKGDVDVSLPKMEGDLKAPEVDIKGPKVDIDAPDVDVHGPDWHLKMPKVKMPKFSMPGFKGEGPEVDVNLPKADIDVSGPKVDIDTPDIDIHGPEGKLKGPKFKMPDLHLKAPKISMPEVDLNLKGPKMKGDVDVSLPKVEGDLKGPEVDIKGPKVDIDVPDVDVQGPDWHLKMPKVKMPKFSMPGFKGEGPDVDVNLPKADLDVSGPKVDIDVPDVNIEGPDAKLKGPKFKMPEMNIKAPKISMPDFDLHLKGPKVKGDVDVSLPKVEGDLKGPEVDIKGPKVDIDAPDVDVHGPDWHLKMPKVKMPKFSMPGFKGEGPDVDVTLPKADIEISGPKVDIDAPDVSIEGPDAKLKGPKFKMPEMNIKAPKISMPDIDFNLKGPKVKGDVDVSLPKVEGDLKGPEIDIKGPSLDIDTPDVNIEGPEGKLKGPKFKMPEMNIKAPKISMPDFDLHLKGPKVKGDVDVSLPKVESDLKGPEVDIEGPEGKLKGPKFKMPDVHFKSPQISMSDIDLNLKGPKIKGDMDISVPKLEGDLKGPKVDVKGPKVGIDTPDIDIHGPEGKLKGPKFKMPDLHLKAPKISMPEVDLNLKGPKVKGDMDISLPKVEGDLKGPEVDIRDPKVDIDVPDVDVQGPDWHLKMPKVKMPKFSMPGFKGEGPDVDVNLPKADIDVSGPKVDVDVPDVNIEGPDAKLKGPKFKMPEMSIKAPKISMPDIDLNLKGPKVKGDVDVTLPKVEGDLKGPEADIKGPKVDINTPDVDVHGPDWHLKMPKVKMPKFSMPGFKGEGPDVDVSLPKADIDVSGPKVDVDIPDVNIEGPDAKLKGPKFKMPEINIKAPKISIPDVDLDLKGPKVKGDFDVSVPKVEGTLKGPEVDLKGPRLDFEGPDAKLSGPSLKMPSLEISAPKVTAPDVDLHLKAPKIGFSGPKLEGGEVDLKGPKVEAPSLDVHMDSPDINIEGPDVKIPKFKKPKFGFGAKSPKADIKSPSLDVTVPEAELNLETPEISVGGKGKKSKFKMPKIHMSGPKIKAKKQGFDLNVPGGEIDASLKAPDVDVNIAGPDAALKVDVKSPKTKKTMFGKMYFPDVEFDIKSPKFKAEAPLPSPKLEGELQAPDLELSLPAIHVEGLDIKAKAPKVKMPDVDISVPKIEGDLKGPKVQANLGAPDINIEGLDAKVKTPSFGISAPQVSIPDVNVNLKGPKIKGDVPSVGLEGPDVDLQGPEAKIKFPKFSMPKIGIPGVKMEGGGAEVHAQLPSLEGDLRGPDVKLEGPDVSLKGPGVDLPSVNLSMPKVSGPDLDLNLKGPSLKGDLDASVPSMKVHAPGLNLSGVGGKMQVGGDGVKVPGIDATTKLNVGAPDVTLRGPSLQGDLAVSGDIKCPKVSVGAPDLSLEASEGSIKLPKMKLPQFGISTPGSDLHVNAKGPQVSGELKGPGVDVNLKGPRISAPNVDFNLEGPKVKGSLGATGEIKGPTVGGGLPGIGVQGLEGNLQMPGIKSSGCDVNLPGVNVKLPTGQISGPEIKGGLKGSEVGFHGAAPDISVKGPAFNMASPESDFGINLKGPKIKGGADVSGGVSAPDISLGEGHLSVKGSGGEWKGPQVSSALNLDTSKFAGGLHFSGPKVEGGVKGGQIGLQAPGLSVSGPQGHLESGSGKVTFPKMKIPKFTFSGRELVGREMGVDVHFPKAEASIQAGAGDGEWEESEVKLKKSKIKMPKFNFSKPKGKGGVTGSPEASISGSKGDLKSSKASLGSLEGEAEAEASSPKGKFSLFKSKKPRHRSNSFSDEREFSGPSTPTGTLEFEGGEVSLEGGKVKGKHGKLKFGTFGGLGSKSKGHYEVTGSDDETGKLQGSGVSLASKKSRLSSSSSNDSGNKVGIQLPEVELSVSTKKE

Read-outs that look alike come from different tables or passages of the source. Results are given in words; binding and its absence hold for the method and conditions named. Binding seen in cells or lysates may run through a third protein. Here binding means that the protein was enriched with, or labelled near, the bait; the list need not be complete.

What all share (experiment): affinity purification with mass spectrometry; HeLa cells transiently transfected with GAP-43-GFP (WT, S86A,T172A or phosphomimetic double mutant) or GFP alone; lysis 24 h later in 1% Triton X-100, 10% glycerol, 10 mM Tris/Cl pH 7.5, 150 mM NaCl, 0.5 mM EDTA; GFP-Trap agarose beads, 2 h at 4°C; TMT-MS; N = 3 per condition
Test [1] deals with GAP-43 phosphoablative double mutant (S86A,T172A), GFP fusion (murine) (UniProt P06837).
Test [2] concerns the target Growth-associated protein 43 (GAP-43) WT, GFP fusion (murine) (UniProt P06837).
The target in test [3] is GAP-43 phosphoablative double mutant (S86A,T172A), GFP fusion (murine) (UniProt P06837). This is another data set of the same source.

For “nucleophosmin (NPM1) (from UniProt P06748 1-294)”, the binding result in test [1] and in test [2] was “binds” throughout. For the molecule EEF1G (from UniProt P26641 1-437), in test [1], the binding result is listed as “binds”. Same read-out and setting: to “Neuroblast differentiation-associated protein AHNAK (AHNAK) (from UniProt Q09666 1-5890)” belongs “binds”; to “Elongation factor 1-alpha 1 (EEF1A1) (from UniProt P68104 1-462)”, “binds”.

B1: PA2G4 (protein, UniProt Q9UQ80 1-394)
chain: MSGEDEQQEQTIAEDLVVTKYKMGGDIANRVLRSLVEASSSGVSVLSLCEKGDAMIMEETGKIFKKEKEMKKGIAFPTSISVNNCVCHFSPLKSDQDYILKEGDLVKIDLGVHVDGFIANVAHTFVVDVAQGTQVTGRKADVIKAAHLCAEAALRLVKPGNQNTQVTEAWNKVAHSFNCTPIEGMLSHQLKQHVIDGEKTIIQNPTDQQKKDHEKAEFEVHEVYAVDVLVSSGEGKAKDAGQRTTIYKRDPSKQYGLKMKTSRAFFSEVERRFDAMPFTLRAFEDEKKARMGVVECAKHELLQPFNVLYEKEGEFVAQFKFTVLLMPNGPMRITSGPFEPDLYKSEMEVQDAELKALLQSSASRKTQKKKKKKASKTAENATSGETLEENEAGD
Take B1: in test [3], the binding entry is “binds”.
